# Screen size: about 330,000 compounds; about 1,000 (0.3%) were called active. Inconclusive results, whose numbers are uncertain, are shown with a selection of clear calls. Calls follow the shape of the dose curve; as a rule, active = well fitted inhibition curve with a large enough effect; inconclusive = small, poorly fitted or top-dose-only effect; inactive = no such curve, though single readings can be large or run the other way; tested in mouse RAW 264.7 cells. Where the call is inconclusive, the potency comes from a doubtful curve fit.
# Assay: qHTS for Inhibitors of Cell Surface uPA Generation; also: nearly all actives have a fitted effect of over 55% in size
# Details: cell surface uPA generation assay; series mostly up to 38.3 µM; activity change, negative = inhibition: at the top concentration
# In short: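 ATP-Lite luminescence in RAW 264.7 cells after 24 h of exposure to compound, tested up to 38.3 uM final in 1:5 steps. Raised ATP reflects inhibition of uPA-dependent LF delivery to the cytoplasm.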
# % is scaled to controls: 0 for no effect and ±100 for the full control effect; potency is read from the fitted curve at half-maximal effect.
Compound,"activity change, negative = inhibition",Potency
CCc1ccc(NC(=O)Nn2cnnc2)cc1,inactive: 1.5%,–
COc1ccccc1-c1sc2cc3c(cc2c1C#Cc1cncn1C)OCO3,–,"inconclusive: 12.6 µM [inhibitor, single point]"
Cc1cc(O)c(C(C)C)cc1N=Nc1ccccc1C(=O)O,inactive: -1.91%,–
COC(=O)CC1(C(=O)OC)Oc2ccc(Br)cc2C(=O)N1c1cc(Cl)c(Cl)cc1Cl (stereo not drawn),–,"inconclusive: 8.91 µM [inhibitor, single point]"
COc1ccc(/C=C(\NC(=O)c2ccc(OC)cc2)C(=O)Nc2ccc(C(=O)O)cc2)cc1,inactive: 3.75%,–
O=C(O)c1ccccc1N/N=C/c1c(Sc2nnnn2-c2ccccc2)nc2ccccn2c1=O,–,"inconclusive: 4.47 µM [inhibitor, partial curve, poor fit]"
CC(=O)Nc1ccccc1C(=O)C(=O)Nc1ccccc1,inactive: -6.53%,–
CN(CCNC(=O)CN1C(=O)CSc2ccc(S(=O)(=O)N3CCCC3)cc21)Cc1ccccc1,–,"inconclusive: 1.26 µM [inhibitor, partial curve, poor fit]"
CCCC(=O)N1CCCC(c2nc(-c3cccc(OC)c3)no2)C1 (stereo not drawn),–,"inconclusive: 11.2 µM [inhibitor, single point]"
CC(C)(C)c1csc(NC(=O)c2c(F)c(F)c(F)c(F)c2F)n1,–,"inconclusive: 11.2 µM [inhibitor, partial curve, poor fit]"
Cc1cccc(N2CCN(C(=O)c3ccc(CNc4c(N5CCC(C)CC5)c(=O)c4=O)cc3)CC2C)c1 (stereo not drawn),–,"inconclusive: 8.91 µM [inhibitor, single point]"
COc1ccccc1C(=O)/C=C/c1ccc(N2CCCCC2)c([N+](=O)[O-])c1,–,"inconclusive: 12.6 µM [inhibitor, single point]"
CCOC(=O)c1oc2ccc(S(=O)(=O)n3nc(-c4ccccc4)cc3N)cc2c1C,–,"inconclusive: 28.2 µM [inhibitor, single point]"
COc1ccc(-c2sc3ccc(N4CCOCC4)cc3c2C#CCCO)cc1,–,"inconclusive: 12.6 µM [inhibitor, single point]"
CNC(=O)NC1CCCCc2sccc21 (stereo not drawn),inactive: -4.86%,–
C=CC[C@@H](Cc1ccc(F)cc1)C(=O)OC[C@H]1CCCN1C(=O)[C@@H](CC=C)CC(=O)N[C@H](CO)Cc1ccccc1,–,"inconclusive: 10 µM [inhibitor, single point]"
Cc1ccccc1NC(=O)Nc1ccccc1C(N)=O,–,"inconclusive: 3.98 µM [inhibitor, partial curve, poor fit]"
CCCCOc1ccc(CC(=O)NO)cc1,–,"inconclusive: 4.47 µM [inhibitor, partial curve]"
COc1cccc(CNC(=O)CCc2ccc(OC)c(OC)c2)c1,inactive: 0.465%,–
O=S(=O)(c1ccc(=S)[nH]c1)N1CCOCC1,inactive: -0.691%,–
CCOc1ccc(N(CC(=O)Nc2ccc(C)cc2)S(=O)(=O)c2c(C)noc2C)cc1,–,"inconclusive: 10 µM [inhibitor, partial curve, poor fit]"
Cc1ccc(NC(=O)C2CCCN(S(=O)(=O)c3c(C)noc3/C=C/N(C)C)C2)c(C)c1 (stereo not drawn),–,"inconclusive: 2.51 µM [inhibitor, partial curve]"

Compound,"activity change, negative = inhibition",Potency
COc1cccc(CNS(=O)(=O)c2ccccc2Br)c1OC,inactive: -2.82%,–
Cc1cc(=O)[nH]c(N/N=C/c2ccc3c(c2)OCCO3)n1,–,"inconclusive: 4.47 µM [inhibitor, partial curve, poor fit]"
Cc1ccc2sc(NC(=O)c3cccc(N4C(=O)CCC4=O)c3)nc2c1C,–,"inconclusive: 0.891 µM [inhibitor, full curve, poor fit]"
COc1ccc2c(c1)[C@H]1[C@H](CO2)[C@H](c2ccccc2)[C@]2(C)C(=O)Nc3ccccc3C(=O)N12,–,"inconclusive: 28.2 µM [inhibitor, single point]"
Cc1ccc(O)c([C@H](CCN(C(C)C)C(C)C)c2ccccc2)c1,–,"inconclusive: 6.31 µM [inhibitor, single point]"
Nc1[nH]n(-c2ccccc2)c(=O)c1N=Nc1ccc2c(c1)OCO2,–,"inconclusive: 8.91 µM [inhibitor, partial curve]"
CN(C)CCCNC(=S)NCCNc1nc2cc3c(cc2cc1C#N)OCO3,inactive: -17.3%,–
NC(=O)C1(N2CCCCC2)CCN(C(=S)Nc2ccc(S(N)(=O)=O)cc2)CC1,inactive: 6.87%,–
Cc1c(C(=O)O)sc2ncnc(N3CCCCC3C)c12 (stereo not drawn),inactive: 1.35%,–
COc1cc(CSc2nnnn2-c2ccc(C)cc2)cc(OC)c1OC,–,"inconclusive: 3.55 µM [inhibitor, partial curve, poor fit]"
CC(C)[C@H]1COCCS(=O)(=O)N1Cc1ccccc1F,inactive: -19%,–
CCCCC(=O)Nc1nc(C)c(-c2csc(Nc3ccccc3OC)n2)s1,–,"inconclusive: 5.01 µM [inhibitor, partial curve, poor fit]"
Oc1cc(Nc2ccccc2)cc2cccnc12,–,"inconclusive: 10 µM [inhibitor, single point]"
CCCCCCN(C(=O)CCCN1C(=O)NC(c2ccc(-c3ccccc3)cc2)C(C(=O)OCc2ccccc2)=C1C)C(C)C(=O)NCCCC (stereo not drawn),–,"inconclusive: 28.2 µM [inhibitor, single point]"
O=C(COc1ccccc1)N[C@@H]1c2ccccc2CC[C@H]1OCc1ccccc1,–,"inconclusive: 14.1 µM [inhibitor, single point]"
COc1ccc(C(CNC(=O)c2ccc(-c3nc4ccccc4s3)o2)N2CCCC2)cc1 (stereo not drawn),–,"inconclusive: 12.6 µM [inhibitor, single point]"
COc1ccc(Cl)cc1S(=O)(=O)N1CCCC1,–,"inconclusive: 0.891 µM [inhibitor, partial curve, poor fit]"
CCOc1ccc(CNCc2ccccc2Cl)cc1,–,"inconclusive: 8.91 µM [inhibitor, partial curve]"
N=c1oc2ccc(Cl)cc2cc1C(=O)NC1CCCCCC1,–,"inconclusive: 1 µM [inhibitor, full curve, poor fit]"
CCn1c(SCC(=O)Nc2ccc3c(c2)OCCO3)nnc1-c1c[nH]c2ccccc12,inactive: -3.19%,–
Cc1ccc(S(=O)(=O)N2CCCCC2)cc1NC(=O)COC(=O)c1ccccc1F,inactive: -1.42%,–
